Earlier results on 9 compounds are cited in patent US20090004248A1, “DUAL PORTION DOSAGE LOZENGE FORM” (priority 2007, published 2009).

Molecules are shown by their SMILES. Residues, ends and D or L forms follow the SMILES beside them.

The conditions of this data set: level of sweetness relative to sucrose; sucrose is the standard with index 1.
In the case of `CC1=CC(=O)[N-]S(=O)(=O)O1.[K+]` [Acesulfame K], the sweetness index is reported as 200.

Turning to `COC(=O)[C@H](Cc1ccccc1)NC(=O)[C@@H](N)CC(=O)O` [Aspartame] (H-Asp-Phe-OMe), the sweetness index is given as 180.

As to `O=C(CO)[C@@H](O)[C@H](O)[C@H](O)CO` [Fructose], the sweetness index is 1.2-1.7.

For the compound `OC[C@@H](O)[C@@H](O)[C@H](O)[C@H](O)CO` [Mannitol], the sweetness index is reported as 0.7.

Turning to `O=C1NS(=O)(=O)c2ccccc21` [Saccharin], the sweetness index is 300.

`OC[C@@H](O)[C@@H](O)[C@H](O)[C@@H](O)CO` [Sorbitol]: the sweetness index was 0.54-0.7.

On to `OC[C@H]1O[C@H](O[C@]2(CCl)O[C@H](CCl)[C@@H](O)[C@@H]2O)[C@H](O)[C@@H](O)[C@H]1Cl` [Sucralose], for which the sweetness index is on record as 600.

With `OC[C@H]1O[C@@](CO)(O[C@H]2O[C@H](CO)[C@@H](O)[C@H](O)[C@H]2O)[C@@H](O)[C@@H]1O` [Sucrose], the sweetness index was 1.

Regarding `OC[C@@H](O)[C@H](O)[C@@H](O)CO` [Xylitol], the sweetness index is 1.0.
